In PubChem BioAssay (NCATS):
Where “and” joins values, the source holds several entries; their conditions need not be identical. Equal values may be shown once. Some of the results follow. These are further read-outs of the screen, such as a control signal, another cell line or another target. No call is given for them. Most of these compounds were active or inconclusive in the main read-out, so they are no random draw. For part of these data: The note in brackets gives the kind of curve behind each potency; many fits are weak.

assay: qHTS assay for small molecule antagonists of vitamin D receptor signaling (AID 588541); settings: HEK293T VDR-UAS-bla, beta-lactamase ratio, antagonist mode; measured here: W460 blue channel (cell viability)

Row | Compound | AC50
1 | O=C1C2CC=CCC2C(=O)N1SC(Cl)(Cl)Cl (centres undefined) | 17.8 µM [falling, full curve] and 4.47 µM [falling, full curve]
2 | O=C1C(Cl)=C(Cl)C(=O)c2ccccc21 | 12.6 µM [falling, full curve]
3 | O=C1c2ccccc2C(=O)N1SC(Cl)(Cl)Cl | 25.1 µM [falling, partial curve]
4 | CC(c1ccc(O)cc1)(c1ccc(O)cc1)c1ccc(O)cc1 | 35.5 µM [rising, partial curve, poor fit]

assay: qHTS assay for small molecule agonists of retinoid X receptor alpha signaling (AID 588544); settings: HEK293T RXRa-UAS-bla, beta-lactamase reporter, 18 h; 530 nm emission

Row | Compound | max response
5 | O=C1C2CC=CCC2C(=O)N1SC(Cl)(Cl)Cl (centres undefined) | 21.2% and 38.4% and 34%
6 | COc1cc(OC)c(OC)cc1C=O | 22%
7 | O=C(Nc1ccccc1)Nc1cnns1 | 8.63%
8 | c1ccc(Nc2ccc3ccccc3c2)cc1 | 6.5% and 2.74%
9 | COC1=CC(=O)OC(CCc2ccccc2)C1 (centres undefined) | 23.3%
10 | CC(=O)NNc1ccccc1 | 10.2%
11 | Nc1ccc(Cc2ccc(N)c(Cl)c2)cc1Cl | 1.97%
12 | CCCN(CCC)c1c([N+](=O)[O-])cc(C(F)(F)F)c(N)c1[N+](=O)[O-] | 5.14%
13 | O=[N+]([O-])c1ccc(Nc2ccccc2)cc1 | 10.9%
14 | CC(C)(c1ccc(O)cc1)c1ccc(O)cc1 | 10.2%
15 | CCC(C)c1cc([N+](=O)[O-])cc([N+](=O)[O-])c1O (centres undefined) | 8.87%
16 | O=C1C(Cl)=C(Cl)C(=O)c2ccccc21 | -14%
17 | Oc1ccccc1 | -9.61%
18 | CCc1cccc(C)c1N(C(=O)CCl)C(C)COC (centres undefined) | 14.3%
19 | O=C1c2ccccc2C(=O)N1SC(Cl)(Cl)Cl | 33%
20 | CC(c1ccc(O)cc1)(c1ccc(O)cc1)c1ccc(O)cc1 | 12%

assay: qHTS assay for small molecule antagonists of retinoid X receptor alpha signaling (AID 588546); settings: HEK293T RXRa-UAS-bla, beta-lactamase ratio, antagonist mode; measured here: W530 green channel, cytotoxicity proxy;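 further: cells stimulated with 9-cis-retinoic acid as agonist; on the % scale 0 is the no-effect control and ±100 the full control effect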
How it was run: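 Beta-lactamase reporter inhibition, read as CCF4 fluorescence ratio (ex 405, em 460/530 nm) after 2 h at RT. HEK293T UAS-bla cells, 2500/well, were stimulated with 9-cis-RA at 500 or 100 nM final alongside test compound for 18 h at 37 C.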

Row | Compound | max response
21 | O=C1C2CC=CCC2C(=O)N1SC(Cl)(Cl)Cl (centres undefined) | 33.3% and 20.9%
22 | O=C1C(Cl)=C(Cl)C(=O)c2ccccc21 | -19.1%
23 | O=C1c2ccccc2C(=O)N1SC(Cl)(Cl)Cl | 1.36%
24 | CC(c1ccc(O)cc1)(c1ccc(O)cc1)c1ccc(O)cc1 | 5.96%
